From PubChem BioAssay AID256 (DTP/NCI, 2004)
The list shows only some results of the screen, not a fair sample: it is rich in T/C values a quarter to a half above the control, in often repeated tests (any T/C) and in doses without a T/C. Further doses and runs are listed elsewhere. T/C is the treated group as % of the vehicle group. Some entries give survivors of the animals treated and no T/C: the source holds a T/C of zero for them, seemingly a mark for toxic or unscored doses. Some survivor counts are full or nearly so, which does not show that the dose was tolerated: survival well below the control is almost never listed, so the zero probably covers shortened survival too. Counts of survivors are from the toxicity check (mostly the fifth day) where no day follows; animals may have died later. Schedules are NCI's codes, read here as Q, the interval in days (D) or hours (H), X, the number of doses. Some entries were tested several times; the results are listed from low to high. For survival time, the PubChem record calls one and a half times the control and up active, and a quarter to a half above the control has no call in these data; cut-offs in other NCI protocols can differ. Signs of the kind (2×) count equal records among those shown. Some T/C values carry the count of animals alive at the toxicity check (mostly the fifth day); where none is given, no animal had died by that day.

System: CD2F1 mice, L1210 leukemia ip, survival T/C
Test: NCI In Vivo Anticancer Drug Screen. Data for tumor model L1210 Leukemia (intraperitoneal) in CD2F1 (CDF1) mice
Conditions: higher T/C = longer survival
Procedure, shortened: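 In this screen, transplantable tumors were grown in mice given either the compound or its vehicle. Results were expressed as the treated measurement relative to the control measurement.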

[1] = T/C endpoint: mean survival time, dose: 200.0 mg/kg/injection, schedule: Q01DX009 (ip), vehicle: saline with Tween-80
[2] = T/C endpoint: mean survival time, dose: 100.0 mg/kg/injection, schedule: Q04DX003 (ip), vehicle: other
[3] = T/C endpoint: mean survival time, dose: 25.0 mg/kg/injection, schedule: Q01DX009 (ip), vehicle: saline
[4] = T/C endpoint: mean survival time, dose: 50.0 mg/kg/injection, schedule: Q01DX009 (ip), vehicle: saline
[5] = T/C endpoint: mean survival time, dose: 200.0 mg/kg/injection, schedule: Q04DX003 (ip), vehicle: other
[6] = T/C endpoint: mean survival time, dose: 400.0 mg/kg/injection, schedule: Q04DX003 (ip), vehicle: other
[7] = T/C endpoint: mean survival time, dose: 400.0 mg/kg/injection, schedule: Q04DX003 (ip), vehicle: saline with Tween-80
[8] = T/C endpoint: median survival time, dose: 12.5 mg/kg/injection, schedule: Q04DX003 (ip), vehicle: saline

COc1cc(CC#N)ccc1C
survivor count (T/C endpoint: mean survival time, dose: 100.0 mg/kg/injection, schedule: Q04DX003 (ip), vehicle: acetone): 0 of 6 | survivor count (T/C endpoint: mean survival time, dose: 200.0 mg/kg/injection, schedule: Q04DX003 (ip), vehicle: acetone): 1 of 6 | survivor count (T/C endpoint: mean survival time, dose: 400.0 mg/kg/injection, schedule: Q04DX003 (ip), vehicle: acetone): 0 of 6

N=C(OC1CCCCC1)C(Cl)(Cl)Cl
survivor count [1]: 3 of 3

O=C(Nc1ccccc1O)/C(Cl)=C/Cl
survivor count [1]: 5 of 6 | survivor count (T/C endpoint: mean survival time, dose: 400.0 mg/kg/injection, schedule: Q01DX009 (ip), vehicle: saline with Tween-80): 3 of 6

O=C(O)C(O)C(O)C(O)C(O)CO.O=C(O)C(O)C(O)C(O)C(O)CO.[NH-]C1CCCCC1[NH-].[Pt+2] (stereo not drawn)
T/C (T/C endpoint: mean survival time, dose: 6.25 mg/kg/injection, schedule: Q04DX003 (ip), vehicle: other): 127 % of control | T/C (T/C endpoint: mean survival time, dose: 6.25 mg/kg/injection, schedule: Q04DX003 (ip), vehicle: saline): 139 % of control | T/C (T/C endpoint: mean survival time, dose: 12.5 mg/kg/injection, schedule: Q04DX003 (ip), vehicle: other): 143 % of control | T/C (T/C endpoint: mean survival time, dose: 12.5 mg/kg/injection, schedule: Q04DX003 (ip), vehicle: saline): 132 % of control | T/C (T/C endpoint: mean survival time, dose: 25.0 mg/kg/injection, schedule: Q04DX003 (ip), vehicle: saline): 148 % of control | survivor count [2]: 9 of 10

CN(C)N=Nc1ccc(NC(N)=O)cc1
T/C (T/C endpoint: mean survival time, dose: 18.75 mg/kg/injection, schedule: Q01DX009 (ip), vehicle: Klucel (hydroxypropylcellulose) (HPC)): 145 % of control | T/C [3]: 127 % of control | T/C [4]: 148 % of control | survivor count (T/C endpoint: mean survival time, dose: 75.0 mg/kg/injection, schedule: Q01DX009 (ip), vehicle: Klucel (hydroxypropylcellulose) (HPC)): 5 of 6 | survivor count (T/C endpoint: mean survival time, dose: 150.0 mg/kg/injection, schedule: Q01DX009 (ip), vehicle: Klucel (hydroxypropylcellulose) (HPC)): 0 of 6 | survivor count (T/C endpoint: mean survival time, dose: 300.0 mg/kg/injection, schedule: Q01DX009 (ip), vehicle: Klucel (hydroxypropylcellulose) (HPC)): 0 of 6

Cc1ccc(S(=O)(=O)N/N=C/C(=O)O)cc1
T/C (T/C endpoint: mean survival time, dose: 50.0 mg/kg/injection, schedule: Q04DX003 (ip), vehicle: other): 111, 118, 126, 130 (2×), 132, 134 % of control | T/C (T/C endpoint: mean survival time, dose: 100.0 mg/kg/injection, schedule: Q01DX009 (ip), vehicle: other): 143 % of control [5 of 6 alive] | T/C [2]: 110, 132, 134 (2×), 138, 143, 145 % of control | T/C (T/C endpoint: mean survival time, dose: 200.0 mg/kg/injection, schedule: Q04DX003 (ip), vehicle: Klucel (hydroxypropylcellulose) (HPC)): 131 % of control | T/C [5]: 130 [5 of 6 alive], 151, 159, 159 [5 of 6 alive], 160, 166 % of control | survivor count [5]: 6 of 6 | T/C (T/C endpoint: mean survival time, dose: 200.0 mg/kg/injection, schedule: Q04DX003 (ip), vehicle: saline with Tween-80): 131 % of control | survivor count (T/C endpoint: mean survival time, dose: 400.0 mg/kg/injection, schedule: Q01DX009 (ip), vehicle: other): 0 of 6 and 1 of 6 | T/C [6]: 94 [5 of 6 alive] and 105 % of control [5 of 6 alive] | survivor count [6]: 0 of 6, 1 of 6, 4 of 6 | T/C [7]: 146 % of control | T/C (T/C endpoint: median survival time, dose: 4.0 mg/kg/injection, schedule: Q03HX016 (ip), vehicle: saline): 132 % of control | T/C (T/C endpoint: median survival time, dose: 8.0 mg/kg/injection, schedule: Q01DX009 (ip), vehicle: saline): 131 % of control | T/C (T/C endpoint: median survival time, dose: 8.0 mg/kg/injection, schedule: Q03HX008 (ip), vehicle: saline): 137 % of control | T/C (T/C endpoint: median survival time, dose: 8.0 mg/kg/injection, schedule: Q03HX016 (ip), vehicle: saline): 144 % of control | T/C (T/C endpoint: median survival time, dose: 8.0 mg/kg/injection, schedule: Q03HX024 (ip), vehicle: saline): 133 % of control | T/C (T/C endpoint: median survival time, dose: 16.0 mg/kg/injection, schedule: Q01DX009 (ip), vehicle: saline): 144 % of control | T/C (T/C endpoint: median survival time, dose: 16.0 mg/kg/injection, schedule: Q03HX008 (ip), vehicle: saline): 143 % of control | T/C (T/C endpoint: median survival time, dose: 16.0 mg/kg/injection, schedule: Q03HX016 (ip), vehicle: saline): 138 % of control [7 of 10 alive] | T/C (T/C endpoint: median survival time, dose: 16.0 mg/kg/injection, schedule: Q03HX024 (ip), vehicle: saline): 131 % of control [9 of 10 alive] | T/C (T/C endpoint: median survival time, dose: 16.0 mg/kg/injection, schedule: Q04DX003 (ip), vehicle: saline): 134 % of control | T/C (T/C endpoint: median survival time, dose: 16.0 mg/kg/injection, schedule: Q08DX002 (ip), vehicle: saline): 134 % of control | T/C (T/C endpoint: median survival time, dose: 32.0 mg/kg/injection, schedule: Q01DX001 (ip), vehicle: saline): 132 % of control | T/C (T/C endpoint: median survival time, dose: 32.0 mg/kg/injection, schedule: Q03HX008 (ip), vehicle: saline): 146 % of control [8 of 10 alive] | T/C (T/C endpoint: median survival time, dose: 32.0 mg/kg/injection, schedule: Q04DX003 (ip), vehicle: saline): 141 % of control | T/C (T/C endpoint: median survival time, dose: 32.0 mg/kg/injection, schedule: Q08DX002 (ip), vehicle: saline): 143 % of control | T/C (T/C endpoint: median survival time, dose: 64.0 mg/kg/injection, schedule: Q01DX001 (ip), vehicle: saline): 135 % of control [9 of 10 alive] | survivor count (T/C endpoint: median survival time, dose: 64.0 mg/kg/injection, schedule: Q03HX008 (ip), vehicle: saline): 5 of 10 | survivor count (T/C endpoint: median survival time, dose: 64.0 mg/kg/injection, schedule: Q03HX016 (ip), vehicle: saline): 6 of 10 | T/C (T/C endpoint: median survival time, dose: 64.0 mg/kg/injection, schedule: Q08DX002 (ip), vehicle: saline): 149 % of control [9 of 10 alive] | T/C (T/C endpoint: median survival time, dose: 128.0 mg/kg/injection, schedule: Q01DX001 (ip), vehicle: saline): 143 % of control [8 of 10 alive] | T/C (T/C endpoint: median survival time, dose: 128.0 mg/kg/injection, schedule: Q01DX009 (ip), vehicle: saline): 131 % of control [9 of 10 alive] | T/C (T/C endpoint: median survival time, dose: 256.0 mg/kg/injection, schedule: Q01DX001 (ip), vehicle: saline): 138 % of control [8 of 10 alive] | T/C (T/C endpoint: median survival time, dose: 256.0 mg/kg/injection, schedule: Q04DX003 (ip), vehicle: saline): 134 % of control [8 of 10 alive] | T/C (T/C endpoint: median survival time, dose: 256.0 mg/kg/injection, schedule: Q08DX002 (ip), vehicle: saline): 143 % of control [7 of 10 alive] | survivor count (T/C endpoint: median survival time, dose: 512.0 mg/kg/injection, schedule: Q01DX001 (ip), vehicle: saline): 6 of 10 | T/C (T/C endpoint: median survival time, dose: 512.0 mg/kg/injection, schedule: Q01DX009 (oral), vehicle: saline): 126 % of control | survivor count (T/C endpoint: median survival time, dose: 512.0 mg/kg/injection, schedule: Q08DX002 (ip), vehicle: saline): 6 of 10 | survivor count (T/C endpoint: median survival time, dose: 2048.0 mg/kg/injection, schedule: Q01DX001 (oral), vehicle: saline): 5 of 10

O=C(O)c1c2c(nc3ccccc13)-c1ccccc1C1(CCCC1)C2
survivor count [7]: 3 of 6

NC1CCCCC1N.O=S(=O)([O-])CCCNC1CCCCC1.O=S(=O)([O-])CCCNC1CCCCC1.[Pt+4]
T/C [8]: 144 % of control | survivor count [8]: 6 of 6 | survivor count (T/C endpoint: median survival time, dose: 25.0 mg/kg/injection, schedule: Q04DX003 (ip), vehicle: saline): 5 of 6 and 6 of 6 | survivor count (T/C endpoint: median survival time, dose: 50.0 mg/kg/injection, schedule: Q04DX003 (ip), vehicle: saline): 1 of 6 | survivor count (T/C endpoint: median survival time, dose: 100.0 mg/kg/injection, schedule: Q04DX003 (ip), vehicle: saline): 0 of 6 | survivor count (T/C endpoint: median survival time, dose: 200.0 mg/kg/injection, schedule: Q04DX003 (ip), vehicle: saline): 0 of 6

O=C(O)C(CSC(c1ccccc1)(c1ccccc1)c1ccccc1)N=Cc1cccs1 (stereo not drawn)
T/C [3]: 125 % of control | T/C (T/C endpoint: mean survival time, dose: 50.0 mg/kg/injection, schedule: Q01DX009 (ip), vehicle: saline with Tween-80): 128 % of control | T/C [4]: 134 % of control | T/C (T/C endpoint: mean survival time, dose: 50.0 mg/kg/injection, schedule: Q01DX009 (ip), vehicle: suspension in saline): 134 % of control | T/C (T/C endpoint: mean survival time, dose: 100.0 mg/kg/injection, schedule: Q01DX009 (ip), vehicle: saline): 133 % of control [5 of 6 alive] | survivor count (T/C endpoint: mean survival time, dose: 150.0 mg/kg/injection, schedule: Q01DX009 (ip), vehicle: saline): 6 of 6 | survivor count (T/C endpoint: mean survival time, dose: 400.0 mg/kg/injection, schedule: Q01DX009 (ip), vehicle: saline): 1 of 6 | survivor count (T/C endpoint: mean survival time, dose: 400.0 mg/kg/injection, schedule: Q01DX009 (ip), vehicle: suspension in saline): 0 of 6

COc1ccc(N/C=C/C2=[N+](C)c3ccccc3C2(C)C)c(OC)c1
survivor count (T/C endpoint: mean survival time, dose: 400.0 mg/kg/injection, schedule: Q04DX003 (ip), vehicle: saline): 0 of 6
